Test results taken from patent publication US20220324954A1.
Results are given in words; binding and its absence hold for the method and conditions named. Some entries that bind do so weakly or less than the wild type.

Chains of the proteins cited; added tags and fusions are not shown. Lines headed by an entry give the natural chain unless they say otherwise; changes in a name come on top. A line that says so, or that is headed by a name, gives the form on record, which may keep a tag or linker.
human VEGFA (P15692, form named): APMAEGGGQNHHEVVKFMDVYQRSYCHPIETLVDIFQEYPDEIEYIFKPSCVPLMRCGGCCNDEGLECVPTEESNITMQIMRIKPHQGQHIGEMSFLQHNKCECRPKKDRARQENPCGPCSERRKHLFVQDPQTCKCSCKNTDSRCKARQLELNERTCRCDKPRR

Tests used:
[1] = target: human VEGFA (human) (UniProt P15692); test: ELISA (FIG. 9 legend)
[2] = target: T1, mouse VEGFA (mouse) (UniProt Q00731); test: ELISA (FIG. 9 legend)
T1 sequence (biotinylated (sites not stated), looked up): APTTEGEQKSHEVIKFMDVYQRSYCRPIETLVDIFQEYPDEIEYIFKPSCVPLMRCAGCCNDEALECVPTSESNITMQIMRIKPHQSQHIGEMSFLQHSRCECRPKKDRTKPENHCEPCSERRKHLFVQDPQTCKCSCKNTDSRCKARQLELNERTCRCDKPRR

[3] = target: human VEGFA (human) (UniProt P15692); test: ELISA, antibody coated at 1 ug/mL, biotinylated ligand at 1 ug/mL, SA-HRP (FIG. 9)
[4] = target: T1, mouse VEGFA (mouse); test: as above
[5] = target: human VEGFA (human) (UniProt P15692); test: ELISA, antibody coated at 1 ug/mL, biotinylated ligand at 1 ug/mL, SA-HRP (FIG. 8)
[6] = target: human VEGFA (human) (UniProt P15692); test: ELISA (FIG. 8 legend)

Measured: binding

B1: hu bi-Nb24(Y) (VHH)
chain: EVQLQESGGGLVQPGGSLRLSCTASGFTFDDPDVGWFRQAPGNECELVSTISKDGSTYYTDSVKGRFTISRDYAKNTVYLQMNSLRAEDTAVYYCAADSNPIAPIRTCLGWYNYWGQGTLVTVSSGGGGSGGGSEVQLQESGGGLVQPGGSLRLSCTASGFTFDDPDVGWFRQAPGNECELVSTISKDGSTYYTDSVKGRFTISRDYAKNTVYLQMNSLRAEDTAVYYCAADSNPIAPIRTCLGWYNYWGQGTLVTVSS
binds: all assays above
